# Reference: patent US11731970B1, “Pyrrolo[2,3-b]quinoline compounds as antibacterial agents” (KING FAISAL UNIVERSITY, priority 2023, dated 2023)
# How the values were obtained:
# [1] = tested on: Staphylococcus aureus ATCC 29213; assay: Antibacterial MIC, CLSI M07-A10 dilution; type: cell-based; conditions: ATCC29213
# [2] = tested on: Staphylococcus aureus ATCC BAA-1556 (MERSA resistant); assay: Antibacterial MIC, CLSI M07-A10 dilution; type: cell-based; conditions: ATCCBAA1556
smiles,measurement,setting,value
"CN[C@H](CC(C)C)C(=O)N[C@H]1C(=O)N[C@@H](CC(N)=O)C(=O)N[C@H]2C(=O)N[C@H]3C(=O)N[C@H](C(=O)N[C@H](C(=O)O)c4cc(O)cc(O)c4-c4cc3ccc4O)[C@H](O)c3ccc(c(Cl)c3)Oc3cc2cc(c3O[C@@H]2O[C@H](CO)[C@@H](O)[C@H](O)[C@H]2O[C@H]2C[C@](C)(N)[C@H](O)[C@H](C)O2)Oc2ccc(cc2Cl)[C@H]1O [Vancomycin, reference compound]",MIC,[1],1 µg/mL
same,MIC,[2],1 µg/mL
